Experimental data: US20160050930A1, “METHODS OF CONTROLLING NEONICOTINOID RESISTANT PESTS” (SYNGENTA PARTICIPATIONS AG, priority 2013, published 2016)
Some of these results come from one statement about several compounds together.

How the values were obtained:
[1] = tested on: Q-biotype strain of Bemisia tabaci (Neonicotinoid resistant); test: Control of neonicotinoid resistant tobacco whitefly (Bemisia tabaci), spray bioassays on cotton seedlings / cotton leaf discs; format: in vivo; details: for control of the Q-biotype (Neonicotinoid resistant) strain of Bemisia tabaci: 200 ppm; for resistance factor: concentration for set mortality (i.e. 80%) in Q-biotype resistant strain divided by that in susceptible Bemisia tabaci strain
[2] = tested on: FRC-P strain of Myzus persicae (Neonicotinoid resistant); test: Control of neonicotinoid resistant green peach aphid (Myzus persicae), spray bioassays on pea seedlings / Chinese cabbage discs; format: in vivo; details: for control of the FRC-P (Neonicotinoid resistant) strain of Myzus persicae: 200 ppm; for resistance factor (RF80): concentration for set mortality (i.e. 80%) in FRC-P resistant strain divided by that in susceptible Myzus persicae strain

| Structure (SMILES) | control of the Q-biotype (Neonicotinoid resistant) strain of Bemisia tabaci [1] | resistance factor [1] | control of the FRC-P (Neonicotinoid resistant) strain of Myzus persicae [2] | resistance factor (RF80) [2] |
| --- | --- | --- | --- | --- |
| CCOC(=O)C(C)N1C2CCC1CC(C#N)(c1cncc(Br)c1)C2 (racemic) [Compound 2.023] | at least 80% | ≤ 20 |  |  |
| COCC(C(=O)OC)N1C2CCC1CC(C#N)(c1cncc(Br)c1)C2 (racemic) [Compound 2.047] |  |  | at least 80% | ≤ 20 |
| C=CC(C)N1C2C=CC1CC(C#N)(c1cncc(Br)c1)C2 (racemic) [Compound 5.285] | at least 80% | ≤ 20 |  |  |
| CCNC(=O)C(C)N1C2C=CC1CC(C#N)(c1cncc(Br)c1)C2 (racemic) [Compound 5.313] | at least 80% | ≤ 20 |  |  |
| N#CC1(c2cncc(Cl)c2)CC2CCC(C1)N2C1C[S+]([O-])C1 (centres unmarked) [Compound 1.005] |  |  | at least 80% | ≤ 20 |
| N#CC1(c2cncc(Cl)c2)CC2CCC(C1)N2C1CS(=O)(=O)C1 (centres unmarked) [Compound 1.006] |  |  | at least 80% | ≤ 20 |
| CC#CCN1C2CCC1CC(C#N)(c1cncc(Cl)c1)C2 (centres unmarked) [Compound 1.020] |  |  | at least 80% | ≤ 20 |
| CCOC(=O)C(C)N1C2CCC1CC(C#N)(c1cncc(Cl)c1)C2 (centres unmarked) [Compound 1.023] |  |  | at least 80% | ≤ 20 |
| N#CC1(c2cncc(Cl)c2)CC2CCC(C1)N2C1CSC1 (centres unmarked) [Compound 1.031] |  |  | at least 80% | ≤ 20 |
| N#CC1(c2cncc(Cl)c2)CC2CCC(C1)N2C1CCOC1=O (centres unmarked) [Compound 1.034] |  |  | at least 80% | ≤ 20 |
| C#CCN1C2CCC1CC(C#N)(c1cncc(Cl)c1)C2 (centres unmarked) [Compound 1.042] | at least 80% | ≤ 20 |  |  |
| N#CC1(c2cncc(Cl)c2)CC2CCC(C1)N2CC(F)F (centres unmarked) [Compound 1.043] |  |  | at least 80% | ≤ 20 |
| CSCCN1[C@@H]2CC[C@H]1C[C@](C#N)(c1cncc(Cl)c1)C2 [Compound 1.044, (1S,5R)-3-(5-chloro-3-pyridyl)-8-(2-methylsulfanylethyl)-8-azabicyclo[3.2.1]octane-3-carbonitrile] |  |  | at least 80% | ≤ 20 |
| C=CCOC(=O)C(C)N1C2CCC1CC(C#N)(c1cncc(Cl)c1)C2 (centres unmarked) [Compound 1.046] |  |  | at least 80% | ≤ 20 |
| N#CC1(c2cncc(Cl)c2)CC2CCC(C1)N2CCCC(F)(F)F (centres unmarked) [Compound 1.050] |  |  | at least 80% | ≤ 20 |
| C[S+]([O-])CCN1C2CCC1CC(C#N)(c1cncc(Cl)c1)C2 (centres unmarked) [Compound 1.055] |  |  | at least 80% | ≤ 20 |
| N#CC(C=O)=CN1C2CCC1CC(C#N)(c1cncc(Cl)c1)C2 (centres unmarked) [Compound 1.061] |  |  | at least 80% | ≤ 20 |
| CS(=N)(=O)CCN1C2CCC1CC(C#N)(c1cncc(Cl)c1)C2 (centres unmarked) [Compound 1.066] |  |  | at least 80% | ≤ 20 |
| N#CC1(c2cncc(Cl)c2)CC2CCC(C1)N2C=O (centres unmarked) [Compound 1.073] |  |  | at least 80% | ≤ 20 |
| CCCCCCN1C2CCC1CC(C#N)(c1cncc(Cl)c1)C2 (centres unmarked) [Compound 1.076] |  |  | at least 80% | ≤ 20 |
| C=CCN1C2CCC1CC(C#N)(c1cncc(Cl)c1)C2 (centres unmarked) [Compound 1.082] |  |  | at least 80% | ≤ 20 |
| N#CCN1C2CCC1CC(C#N)(c1cncc(Cl)c1)C2 (centres unmarked) [Compound 1.087] |  |  | at least 80% | ≤ 20 |
| Cc1cccc(N2C3CCC2CC(C#N)(c2cncc(Cl)c2)C3)c1 (centres unmarked) [Compound 1.090] |  |  | at least 80% | ≤ 20 |
| C=CC(C)(C)N1C2CCC1CC(C#N)(c1cncc(Cl)c1)C2 (centres unmarked) [Compound 1.097] |  |  | at least 80% | ≤ 20 |
| N#CC1(c2cncc(Cl)c2)CC2CCC(C1)N2CCF (centres unmarked) [Compound 1.104] |  |  | at least 80% | ≤ 20 |
| N#CC1(c2cncc(Cl)c2)CC2CCC(C1)N2NC(=O)c1cnccc1C(F)(F)F (centres unmarked) [Compound 1.107] |  |  | at least 80% | ≤ 20 |

| Structure (SMILES) | control of the Q-biotype (Neonicotinoid resistant) strain of Bemisia tabaci [1] | resistance factor [1] | control of the FRC-P (Neonicotinoid resistant) strain of Myzus persicae [2] | resistance factor (RF80) [2] |
| --- | --- | --- | --- | --- |
| CC(F)(F)CN1C2CCC1CC(C#N)(c1cncc(Cl)c1)C2 (centres unmarked) [Compound 1.149] |  |  | at least 80% | ≤ 20 |
| N#CC1(c2cncc(Cl)c2)CC2CCC(C1)N2Cc1cccc(F)c1F (centres unmarked) [Compound 1.175] |  |  | at least 80% | ≤ 20 |
| N#CC1(c2cncc(Cl)c2)CC2CCC(C1)N2Cc1ccccn1 (centres unmarked) [Compound 1.177] |  |  | at least 80% | ≤ 20 |
| N#CC1(c2cncc(Cl)c2)CC2CCC(C1)N2CC(F)(F)C(F)(F)C(F)(F)F (centres unmarked) [Compound 1.194] |  |  | at least 80% | ≤ 20 |
| CC(C)(C)N1C2CCC1CC(C#N)(c1cncc(Cl)c1)C2 (centres unmarked) [Compound 1.232] |  |  | at least 80% | ≤ 20 |
| N#CC1(c2cncc(Br)c2)CC2CCC(C1)N2CC(F)(F)F (centres unmarked) [Compound 2.003] |  |  | at least 80% | ≤ 20 |
| COCCOC(=O)CN1C2CCC1CC(C#N)(c1cncc(Br)c1)C2 (centres unmarked) [Compound 2.014] | at least 80% | ≤ 20 |  |  |
| C#CCCN1C2CCC1CC(C#N)(c1cncc(Br)c1)C2 (centres unmarked) [Compound 2.019] |  |  | at least 80% | ≤ 20 |
| CC(C)CN1C2CCC1CC(C#N)(c1cncc(Br)c1)C2 (centres unmarked) [Compound 2.021] |  |  | at least 80% | ≤ 20 |
| C#CC(C)(C)N1[C@@H]2CC[C@H]1C[C@](C#N)(c1cncc(Br)c1)C2 [Compound 2.024, (1S,5R)-3-(5-bromo-3-pyridyl)-8-(1,1-dimethylprop-2-ynyl)-8-azabicyclo[3.2.1]octane-3-carbonitrile] | at least 80% | ≤ 20 |  |  |
| C=C(Br)CN1C2CCC1CC(C#N)(c1cncc(Br)c1)C2 (centres unmarked) [Compound 2.030] | at least 80% | ≤ 20 |  |  |
| N#CC1(c2cncc(Br)c2)CC2CCC(C1)N2CC(F)F (centres unmarked) [Compound 2.043] | at least 80% | ≤ 20 |  |  |
| COC(=O)C(C)N1C2CCC1CC(C#N)(c1cncc(Br)c1)C2 (centres unmarked) [Compound 2.049] | at least 80% | ≤ 20 |  |  |
| N#CC1(c2cncc(Br)c2)CC2CCC(C1)N2CCCC(F)(F)F (centres unmarked) [Compound 2.050] | at least 80% | ≤ 20 |  |  |
| CN(C)C(=O)CN1C2CCC1CC(C#N)(c1cncc(Br)c1)C2 (centres unmarked) [Compound 2.064] |  |  | at least 80% | ≤ 20 |
| N#CCN1C2CCC1CC(C#N)(c1cncc(Br)c1)C2 (centres unmarked) [Compound 2.087] |  |  | at least 80% | ≤ 20 |
| N#CC1(c2cncc(Cl)c2)CC2C=CC(C1)N2CC(F)(F)F (centres unmarked) [Compound 4.003] |  |  | at least 80% | ≤ 20 |
| CC(C)CN1C2C=CC1CC(C#N)(c1cncc(Cl)c1)C2 (centres unmarked) [Compound 4.021] |  |  | at least 80% | ≤ 20 |
| N#CC1(c2cncc(Cl)c2)CC2C=CC(C1)N2C=O (centres unmarked) [Compound 4.073] |  |  | at least 80% | ≤ 20 |
| N#CC1(c2cncc(Br)c2)CC2C=CC(C1)N2CC(F)(F)F (centres unmarked) [Compound 5.003] |  |  | at least 80% | ≤ 20 |
| CC(C)OC(=O)CN1C2C=CC1CC(C#N)(c1cncc(Br)c1)C2 (centres unmarked) [Compound 5.015] |  |  | at least 80% | ≤ 20 |
| CCOC(=O)CN1C2C=CC1CC(C#N)(c1cncc(Br)c1)C2 (centres unmarked) [Compound 5.026] |  |  | at least 80% | ≤ 20 |
| C#CCN1C2C=CC1CC(C#N)(c1cncc(Br)c1)C2 (centres unmarked) [Compound 5.042] |  |  | at least 80% | ≤ 20 |
| N#CC1(c2cncc(Br)c2)CC2C=CC(C1)N2CC(F)F (centres unmarked) [Compound 5.043] |  |  | at least 80% | ≤ 20 |
| CC(C)N1C2C=CC1CC(C#N)(c1cncc(Br)c1)C2 (centres unmarked) [Compound 5.075] |  |  | at least 80% | ≤ 20 |
| C=COC(=O)N1C2CCC1CC(C#N)(c1cncc(I)c1)C2 (centres unmarked) [Compound 7.204] |  |  | at least 80% | ≤ 20 |
